The text below walks through data of publication PMC4595830.

Protein sequences, listed by entry. Tags and fused reporters are not part of them.
UniProt Q91YH6: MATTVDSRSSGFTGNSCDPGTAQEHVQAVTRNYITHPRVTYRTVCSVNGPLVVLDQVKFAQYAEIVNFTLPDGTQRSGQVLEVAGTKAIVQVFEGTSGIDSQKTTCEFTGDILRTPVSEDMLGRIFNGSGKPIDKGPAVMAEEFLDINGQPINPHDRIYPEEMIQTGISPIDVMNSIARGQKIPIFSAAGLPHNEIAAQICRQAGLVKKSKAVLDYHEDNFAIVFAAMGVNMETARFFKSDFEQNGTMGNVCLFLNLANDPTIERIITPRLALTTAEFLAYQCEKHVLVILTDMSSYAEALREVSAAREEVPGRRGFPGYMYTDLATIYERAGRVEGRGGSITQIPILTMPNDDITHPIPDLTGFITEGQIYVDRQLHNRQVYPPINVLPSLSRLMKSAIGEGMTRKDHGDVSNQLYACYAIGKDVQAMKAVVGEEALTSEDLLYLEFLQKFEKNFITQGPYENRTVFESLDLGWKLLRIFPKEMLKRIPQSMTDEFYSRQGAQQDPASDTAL
UniProt P26040: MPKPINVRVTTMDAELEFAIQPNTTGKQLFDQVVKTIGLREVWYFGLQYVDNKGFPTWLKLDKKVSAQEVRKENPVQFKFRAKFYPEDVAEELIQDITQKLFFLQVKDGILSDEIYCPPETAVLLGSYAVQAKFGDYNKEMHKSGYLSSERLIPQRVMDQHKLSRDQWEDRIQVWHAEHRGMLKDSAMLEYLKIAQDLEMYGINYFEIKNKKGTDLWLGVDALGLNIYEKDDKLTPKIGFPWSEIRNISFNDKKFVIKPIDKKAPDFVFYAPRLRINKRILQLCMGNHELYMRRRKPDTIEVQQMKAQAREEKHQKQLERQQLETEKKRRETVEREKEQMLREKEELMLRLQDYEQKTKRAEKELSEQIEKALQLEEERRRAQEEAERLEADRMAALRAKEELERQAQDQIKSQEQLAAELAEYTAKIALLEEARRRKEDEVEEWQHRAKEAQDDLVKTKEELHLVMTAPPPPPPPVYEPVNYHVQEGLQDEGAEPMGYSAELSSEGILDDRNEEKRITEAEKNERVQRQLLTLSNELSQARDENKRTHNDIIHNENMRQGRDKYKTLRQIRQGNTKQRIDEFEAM

The assay deals with ATPase, H+ transporting, lysosomal V1 subunit B1 (mouse (endogenous in kidney)) (UniProt Q91YH6). Briefly: co-IP; proteins immunoprecipitated by anti-B1 antibodies from whole mouse kidney lysates, detected by Western blotting with antibodies against the indicated proteins. (A western blot detects proteins with antibodies after separation by electrophoresis.)

No constants are given. Whether binding was seen depends on the method and setting. In cells and extracts the contact can be indirect. Some binding calls cover weakened binding; strength is not graded here.

ezrin (from UniProt P26040 1-586): the binding entry is recorded as “binds”.
